# Measured values from PubChem BioAssay AID1259354 (Paczesny and Yang Labs, IUPUI and University of Michigan, 2018).
# The chains behind the UniProt entries cited, without tags or fusion partners. Where a name states a change or a piece, a line headed by the entry shows the natural chain unless it says otherwise.
# UniProt Q01638: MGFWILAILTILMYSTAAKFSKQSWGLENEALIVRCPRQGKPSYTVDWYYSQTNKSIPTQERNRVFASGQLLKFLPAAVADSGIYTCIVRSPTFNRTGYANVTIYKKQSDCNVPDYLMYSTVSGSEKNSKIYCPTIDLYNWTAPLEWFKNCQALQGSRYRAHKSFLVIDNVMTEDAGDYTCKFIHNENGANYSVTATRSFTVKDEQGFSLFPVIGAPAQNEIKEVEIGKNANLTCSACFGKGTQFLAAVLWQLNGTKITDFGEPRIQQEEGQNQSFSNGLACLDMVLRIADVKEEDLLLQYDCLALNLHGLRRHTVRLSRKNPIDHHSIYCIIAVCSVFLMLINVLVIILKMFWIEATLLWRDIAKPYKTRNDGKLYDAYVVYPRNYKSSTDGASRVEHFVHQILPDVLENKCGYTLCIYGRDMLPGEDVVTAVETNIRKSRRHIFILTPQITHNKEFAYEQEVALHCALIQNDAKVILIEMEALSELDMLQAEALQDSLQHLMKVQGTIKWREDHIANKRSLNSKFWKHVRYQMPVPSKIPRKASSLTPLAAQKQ
# In all, about 78,000 compounds went through this assay and about 1,800 (2.3%) were called active. The shares of active, inactive and inconclusive entries below differ from those in the screen. Cut-off read from the data, not from the text of the source: active = inhibition above about 30%; inconclusive = mostly about 10% to 28%; inactive = weaker than that.
# Molecular target: Interleukin-1 receptor-like 1 (Homo sapiens) (UniProt Q01638)
# Assay: blocks human ST2 binding to IL-33, primary screen, biochemical, AlphaLISA (AID 1259354)
# Details: AlphaLISA ST2-Fc/biotin-IL-33 interaction, 1 h; at 17 µM, hits give high values
row,Structure (SMILES),inhibition
1,Cc1[nH]c2ccccc2c1SCCNC(=O)c1c(-c2ccccc2Cl)noc1C,inconclusive: 10%
2,CC1(C)Cc2c(c(-c3ccoc3)nc3oc(C(=O)c4ccccc4)c(N)c23)CO1,inconclusive: 21%
3,CSc1ccc(CN(C(=O)CN(C)C2CCS(=O)(=O)C2)C2CC2)cc1 (configuration not stated),inconclusive: 13%
4,COc1ccc(OC)c(C2CC(c3ccc(Br)cc3)=NN2C(C)=O)c1 (configuration not stated),inactive
5,CCn1ncnc1-c1c(-c2ccccc2)ncn1CCCN1CCCC1=O,inconclusive: 15%
6,CCOc1ccc(-n2c(SCc3ccccc3)nc3c(c2=O)SCC3)cc1,inactive
7,O=C1C(C=NCCc2c[nH]c3ccccc23)=C(O)c2ccccc21,inconclusive: 16%
8,CCCNc1nc(OC)nc(OC)n1,inconclusive: 10%
9,Cn1c2c(c3cc([N+](=O)[O-])ccc31)CCCC2=O,inactive
10,Clc1ccc(-c2cnc3n2CCC3)cc1Cl,inconclusive: 11%
11,COc1ccc(OC)c(NC(=O)c2ccc([N+](=O)[O-])cc2)c1,inactive
12,N/C(=N/OC(=O)c1ccc(Cl)c([N+](=O)[O-])c1)c1ccccn1,inconclusive: 16%
13,Cc1ccc(-c2cc3c(nn2)-c2ccccc2C3=O)cc1,active: 34%
14,O=C(CCCn1c(=O)[nH]c2ccsc2c1=O)N1CCN(c2ccc(F)cc2)CC1,inactive
15,O=C(NCc1ccc2c(c1)OCO2)c1ccc2c(c1)N(Cc1ccc(F)cc1)C(=O)CS2,inconclusive: 14%
16,O=C(NCCc1nc2cccnc2n1C1CCCCC1)Nc1ccc(F)cc1F,inconclusive: 20%
17,Cc1ccc(-c2cccc(C(=O)N(C)Cc3nncn3C(C)C)c2)o1,inconclusive: 14%
18,Cc1nc2c(c(=O)[nH]1)CCN(C(=O)Cn1cc(C(F)(F)F)ccc1=O)C2,inactive
19,CN1CCC(N2CC[C@H](c3nnc(-c4ccco4)o3)C2)CC1,inconclusive: 18%
20,Cc1nn(-c2ccccc2)c2sc(C(=O)Nc3ccc(I)cc3)cc12,inconclusive: 10%
21,Cc1nn(Cc2ccccc2Cl)c(C)c1NC(=O)CCCn1nc([N+](=O)[O-])cc1C,inactive
22,O=C(NCCN1CCN(c2ccccc2F)CC1)c1ccc2nc3ccccc3c(=O)n2c1,inconclusive: 13%
23,COc1ccc(N2C(=O)CSC2CCCN(C)C)c(OC)c1 (configuration not stated),inconclusive: 13%
24,COc1ccccc1C(CC(=O)O)c1ccco1 (configuration not stated),inactive
25,O=C(Cn1c(=O)oc2ccccc21)Nc1ccc(Cl)cc1Cl,active: 46%

# Random excerpt: 3 records from the list.
row,Structure (SMILES),inhibition
12,N/C(=N/OC(=O)c1ccc(Cl)c([N+](=O)[O-])c1)c1ccccn1,inconclusive: 16%
5,CCn1ncnc1-c1c(-c2ccccc2)ncn1CCCN1CCCC1=O,inconclusive: 15%
18,Cc1nc2c(c(=O)[nH]1)CCN(C(=O)Cn1cc(C(F)(F)F)ccc1=O)C2,inactive

# Quoted from the listing.
# In inhibition, `COc1ccc(OC)c(NC(=O)c2ccc([N+](=O)[O-])cc2)c1` is listed with inactive
# In inhibition, `COc1ccccc1C(CC(=O)O)c1ccco1` (configuration not stated) is listed with inactive

# More entries:

row,Structure (SMILES),inhibition
1,Cc1nnc(SCC(=O)Nc2ccc(Cl)c(Cl)c2)[nH]c1=O,inconclusive: 11%
2,COc1cc(NC(=O)c2ccc(I)cc2)c(OC)cc1Cl,inactive
3,Cc1cc(C)n(CCCN(C)C(=O)c2cnn3ccn(C)c23)n1,inactive
4,Cc1cccnc1CN1CCN(Cc2cccc(OC3CCCC3)c2)CC1,inconclusive: 19%
5,COc1ccc2oc(=O)c(C(=O)NCCc3ccccc3)cc2c1,inconclusive: 28%
6,COc1ccc(Nc2c(-c3ccc(C)cc3)nc3cnccn23)cc1,inconclusive: 16%
7,CN(CCC1CCOCC1)c1nncc(-c2cc3ccccc3o2)n1,inactive
8,COc1ccccc1-n1c(SCC(=O)Nc2ccc([N+](=O)[O-])cc2)nc2c(c1=O)SCC2,inconclusive: 15%
9,C=CCN(Cc1cccc(OC)c1)C(=O)c1cccc(-c2noc(C)n2)c1,inactive
10,CC(C)c1ccc2c(c1)CCC1[C@](C)(C(=O)O)CCC[C@]21C (some centres not stated),inactive
11,Cc1ccc(CN2C(=O)CCC2(C)C(=O)NCc2cccnc2)cc1 (configuration not stated),inactive
12,O=C1C(=O)N(c2ncccn2)C(c2ccc(Cl)cc2)C1=C(O)c1ccc(F)cc1 (configuration not stated),inconclusive: 14%
13,O=C(O)C[C@@H]1CCN(Cc2c[nH]c3ccccc23)C[C@@H]1CCN1C[C@@H]2C[C@H](C1)c1cccc(=O)n1C2,inconclusive: 17%
14,CCOc1ccc(-c2csc(/C(C#N)=C/c3ccc(OC)cc3)n2)cc1,active: 54%
15,CC1CC(C)CN(S(=O)(=O)c2ccc(F)c(C(N)=O)c2)C1 (configuration not stated),inactive
16,CN(C)c1ccc(/C=C/c2nc3ccc(I)cc3c(=O)n2C)cc1,active: 42%
17,COc1ccccc1NC(=O)C(=O)NCC1COc2ccccc2O1 (configuration not stated),inactive
18,CC1CCCN(C(=O)Cn2cnc3c2c(=O)n(C)c(=O)n3C)C1 (configuration not stated),inconclusive: 18%
19,CC(=O)c1cccc(-c2nccc(-c3ccc(C)nc3C)n2)c1F,inconclusive: 14%
20,N#CC1=C(N)OC2=C(C(=O)CC(c3ccccc3)C2)C1c1ccc(Cl)c(Cl)c1 (configuration not stated),inactive
21,CCOc1cc(/C=c2\sc3nc4cc(C)c(C)cc4n3c2=O)ccc1OCC(N)=O,inconclusive: 13%
22,CS(=O)(=O)c1cccc(C(=O)N2CCC(Cc3cccc(C(N)=O)c3)C2)c1 (configuration not stated),inactive
23,COc1ccc(-n2c(SCC(=O)Nc3cc(C)on3)nc3c([nH]c4ccccc43)c2=O)cc1,inconclusive: 26%
24,COc1ccc(CCN2CC(NC3CSCCSC3)CC2=O)cc1 (configuration not stated),inconclusive: 10%
25,CCOC(=O)c1coc(N2CCC3(CC2)C(=O)Nc2ccccc23)n1,inconclusive: 25%

row,Structure (SMILES),inhibition
1,COc1cc(/C=C(\C#N)c2nc3ccccc3s2)cc(OC)c1OC,active: 34%
2,CC(C)c1nn(C)c2c1C(c1nc(-c3ccc(Cl)cc3)no1)CC(=O)N2 (configuration not stated),inconclusive: 13%
3,Cc1cccc[n+]1C1C(c2ccccc2)C(C#N)=C(C(=C=[N-])C#N)NC1(O)C1CC1 (configuration not stated),inconclusive: 11%
4,O=C(CCC1CCCN(Cc2cn[nH]c2C2CCCCC2)C1)Nc1ccccc1F (configuration not stated),inconclusive: 10%
5,CC1CCCC(N(C)C(=O)C2CCC(CNS(=O)(=O)c3cccc4nsnc34)CC2)C1C (configuration not stated),inactive
6,COc1cccc(-c2[nH]ncc2C(=O)N2C[C@H]3CC=C(C)C[C@H]3C2)c1,inconclusive: 25%
7,Cc1ccc(C2=NN(C(=O)CCC(=O)O)C(Cc3cc4cccc(C)c4nc3Cl)C2)cc1 (configuration not stated),inconclusive: 10%
8,O=C(Nc1ccccc1C(=O)O)c1ccccc1,active: 33%
9,CCOc1ccc(S(=O)(=O)NCC(=O)O)cc1,inactive
10,Cc1cc(NCCCn2cncn2)nc(-c2cccnc2)n1,inconclusive: 15%
11,COc1cccc(-c2cccc(C(=O)NCC3(O)CCCNCC3)c2)c1 (configuration not stated),inconclusive: 10%
12,NC(=O)CSc1nc2c([nH]c3ccccc32)c(=O)n1-c1cccc(Cl)c1,inactive
13,O=C(CNC(=O)c1cccs1)NC1CCCC1,inactive
14,CCCn1cc(C(=O)NCc2sccc2C)c(C)n1,inconclusive: 17%
15,COc1cccc(-c2cc(C(F)(F)F)c3c(N)c(C(C)=O)sc3n2)c1,inconclusive: 28%
16,CN1C(=O)C(CC(=O)NCc2ccon2)(Cc2ccccc2)c2ccccc21 (configuration not stated),inactive
17,FC(F)(F)c1cc(-c2cccs2)nc(-n2cncn2)n1,inconclusive: 11%
18,Cc1cccc(OCCCN2CCCC2)c1,inactive
19,Oc1c(C(Nc2ccccn2)c2ccncc2)ccc2cccnc12 (configuration not stated),inconclusive: 22%
20,O=C(NCc1ccc(F)cc1)c1noc2c1CCCCC2,inconclusive: 21%
21,Cc1cc(C)n(CCNC(=O)c2ncc[nH]2)c(=O)n1,inactive
22,O=C(Cc1c(C(=O)O)[nH]c2ccc(Cl)cc12)Nc1ccc(F)cc1F,inconclusive: 12%
23,COc1ccc(-c2cnn(-c3ccccc3)c2N)cc1OC,inactive
24,Cc1ccc(Nc2cc(C)nc(N3CCN(S(=O)(=O)c4cccc(Cl)c4)CC3)n2)cc1,inconclusive: 15%
25,CCN1CCN(C(=O)CCC(=O)Nc2ccc3nc(N4CCOCC4)cc(C)c3c2)CC1,inactive

row,Structure (SMILES),inhibition
1,CC(C)=CCCC12CCC(CO)(CO1)C(C)C2 (configuration not stated),inactive
2,N#Cc1cc(Cc2ccc(N)c(C#N)c2)ccc1N,inconclusive: 15%
3,COc1ccc(C(=O)N[C@@H]2CN(C(=O)NC3CCCCC3)CCC[C@H]2O)cc1,active: 82%
4,COc1ccc(F)cc1S(=O)(=O)NCc1cccnc1,inactive
5,Cn1cc(C(=O)N2CCN(c3ccccc3F)CC2)c2c3ccccc3n(C)c2c1=O,inactive
6,CN(CC1(CO)CC1)C(=O)[C@@H]1CCCCN1,inactive
7,O=c1oc2ccccc2cc1-c1nc2ccccc2c(=O)[nH]1,inactive
8,O=C(CN1C(=O)/C(=C\c2ccc(C(F)(F)F)cc2)Sc2ccccc21)NCc1cccnc1,inconclusive: 17%
9,Cc1cc(C)n(-c2cccc(C(=O)NCC3Cc4cc(F)cc(-c5cccnc5)c4O3)c2)n1 (configuration not stated),inconclusive: 15%
10,O=C1CSC(c2cc3c(cc2[N+](=O)[O-])OCO3)N1c1ccc(Br)cc1 (configuration not stated),inconclusive: 12%
11,Cc1ccn2c(NC(=O)c3ccc(F)cc3)c(-c3cccs3)nc2c1,inconclusive: 17%
12,COc1ccc(OC)c(-c2ncnc3sccc23)c1,inconclusive: 14%
13,COc1cc(/C=C2\CCC/C(=C\c3cc(OC)c(OC)c(OC)c3)C2=O)cc(OC)c1OC,inconclusive: 13%
14,O=C(Nc1ccncc1)c1ccc2c(c1)C(=O)N(CC1CCCO1)C2=O (configuration not stated),inconclusive: 14%
15,CC(c1nnc(SCC(=O)O)n1-c1ccccc1)n1ccnc1 (configuration not stated),active: 31%
16,CS(=O)(=O)c1ccc(-c2cc(C(F)(F)F)cc3[nH]cnc23)cc1,inconclusive: 12%
17,c1ccc(-c2ncn(CC3CCCCO3)c2-c2ccnc3ccccc23)cc1 (configuration not stated),inconclusive: 16%
18,O=C1CSC(c2ccc(Br)cc2)N1c1ccc(Br)cc1 (configuration not stated),inactive
19,O=C(O)CCC(=O)Nc1nnc(C2CC2)s1,inactive
20,O=C1C(c2ccccc2)=C(O)c2ccccc21,inconclusive: 10%
21,CCOC(=O)c1[nH]ncc1CN1CCN(Cc2ccc(C)cc2)C(CCO)C1 (configuration not stated),inconclusive: 16%
22,Cc1nc2c(-c3ccc(F)cc3)c(C)nn2c(C)c1CCC(=O)Nc1ccc2c(c1)OCCO2,inconclusive: 17%

# Exported with bars between the fields: entries from further up
row | Structure (SMILES) | inhibition
13 | COc1cc(/C=C2\CCC/C(=C\c3cc(OC)c(OC)c(OC)c3)C2=O)cc(OC)c1OC | inconclusive: 13%
14 | O=C(Nc1ccncc1)c1ccc2c(c1)C(=O)N(CC1CCCO1)C2=O (configuration not stated) | inconclusive: 14%
